Laboratory results taken from patent US20250019361A1, “(3-QUINOLYL)-QUINAZOLINE” (BASF SE, priority 2021, published 2025).
Some entries share one result that the patent states for a list of compounds.

Experiments:
Septoria tritici = experiment: Microtest: activity against leaf blotch on wheat caused by Septoria tritici; format: cell-based; details: 31 ppm
Procedure: The active compounds were formulated separately as a stock solution having a concentration of 10000 ppm in dimethyl sulfoxide.
The stock solutions were mixed according to the ratio, pipetted onto a micro titer plate (MTP) and diluted with water to the stated concentrations.
A spore suspension of Septoria tritici in an aqueous biomalt or yeast-bactopeptone-glycerine or DOB solution was then added.
The measured parameters were compared to the growth of the active compound-free control variant (100%) and the fungus-free blank value to determine the relative growth in % of the pathogens in the respective active compounds.

Botrytis cinerea [1] = experiment: Microtest: activity against the grey mold Botrytis cinerea in the microtiterplate test; format: cell-based; details: 31 ppm
Cercospora zeae maydis = experiment: Microtest: activity against Cercospora zeae maydis in the microtiterplate test; format: cell-based; details: 31 ppm
Sclerotinia sclerotiorum [2] = experiment: Green house: preventative fungicidal control of white mold on soybeans caused by Sclerotinia sclerotiorum (SCLESC P1); details: 250 ppm, assessed after 6 days, untreated plants 80% infected
Botrytis cinerea [3] = experiment: Green house: preventative fungicidal control of Botrytis cinerea on leaves of green pepper; format: in vivo; details: 250 ppm, sprayed one day before inoculation, assessed after 5 days, untreated plants 80% infected
Fusarium culmorum = experiment: Microtest: activity against Fusarium culmorum in the microtiterplate test; format: cell-based
Sclerotinia sclerotiorum [4] = experiment: Green house: preventative fungicidal control of white mold on oilseed rape caused by Sclerotinia sclerotiorum SCLESC P1 OSR; format: in vivo; details: 100 g/ha, assessed after 14 days, untreated plants 80% infected
Cercospora sojina = experiment: Microtest: activity against Cercospora sojina in the microtiterplate test; format: cell-based; details: 31 ppm
Cercospora beticula = experiment: Microtest: activity against Cercospora beticula in the microtiterplate test; format: cell-based; details: 31 ppm
[5] = tested on: Corynespora cassiicola G413A mutant; experiment: Microtest: activity against Corynespora cassiicola G413A mutant in the microtiterplate test; format: cell-based; details: 31 ppm
Pyricularia oryzae = format: cell-based; details: 31 ppm

Structure (SMILES): CC1(C)N=C(c2cnc3ccccc3c2)c2cccc(F)c2N1C#N [Ex-26]
- growth of the pathogen (relative growth in %, control 100%) (Septoria tritici): up to 18%
- growth of the pathogen (relative growth in %, control 100%) (Botrytis cinerea [1]): up to 14%
- growth of the pathogen (relative growth in %, control 100%) (Cercospora zeae maydis): up to 17%
- growth of the pathogen (fungal attack on the leaves visually assessed as % diseased leaf area) (Sclerotinia sclerotiorum [2]): at most 15%
- growth of the pathogen (fungal attack on the leaves visually assessed as % diseased leaf area) (Botrytis cinerea [3]): at most 13%
- growth of the pathogen (relative growth in %, control 100%) (Fusarium culmorum; 31 ppm): up to 20%
- growth of the pathogen (fungal attack on the leaves visually assessed as % diseased leaf area) (Sclerotinia sclerotiorum [4]): at most 12%
- growth of the pathogen (relative growth in %, control 100%) (Cercospora sojina): up to 12%
- growth of the pathogen (relative growth in %, control 100%) (Cercospora beticula): up to 20%
- growth of the pathogen (relative growth in %, control 100%) [5]: up to 17%

Structure (SMILES): CCC(=O)N1c2c(F)cccc2C(c2cnc3c(F)cccc3c2)=NC1(C)C [Ex-18]
- growth of the pathogen (relative growth in %, control 100%) (Septoria tritici): up to 18%
- growth of the pathogen (relative growth in %, control 100%) (Botrytis cinerea [1]): up to 14%
- growth of the pathogen (relative growth in %, control 100%) (Pyricularia oryzae): up to 20%
- growth of the pathogen (relative growth in %, control 100%) (Cercospora zeae maydis): up to 17%
- growth of the pathogen (fungal attack on the leaves visually assessed as % diseased leaf area) (Botrytis cinerea [3]): at most 13%
- growth of the pathogen (relative growth in %, control 100%) (Fusarium culmorum; 31 ppm): up to 20%
- growth of the pathogen (relative growth in %, control 100%) (Cercospora sojina): up to 12%
- growth of the pathogen (relative growth in %, control 100%) (Cercospora beticula): up to 20%
- growth of the pathogen (relative growth in %, control 100%) [5]: up to 17%

Structure (SMILES): CN1c2c(F)cccc2C(c2cnc3ccccc3c2)=NC1(C)C [Ex-25]
- growth of the pathogen (relative growth in %, control 100%) (Septoria tritici): up to 18%
- growth of the pathogen (relative growth in %, control 100%) (Botrytis cinerea [1]): up to 14%
- growth of the pathogen (relative growth in %, control 100%) (Cercospora zeae maydis): up to 17%
- growth of the pathogen (fungal attack on the leaves visually assessed as % diseased leaf area) (Sclerotinia sclerotiorum [2]): at most 15%
- growth of the pathogen (fungal attack on the leaves visually assessed as % diseased leaf area) (Botrytis cinerea [3]): at most 13%
- growth of the pathogen (relative growth in %, control 100%) (Fusarium culmorum; 31 ppm): up to 20%
- growth of the pathogen (fungal attack on the leaves visually assessed as % diseased leaf area) (Sclerotinia sclerotiorum [4]): at most 12%
- growth of the pathogen (relative growth in %, control 100%) (Cercospora beticula): up to 20%
- growth of the pathogen (relative growth in %, control 100%) [5]: up to 17%

Structure (SMILES): CN1c2c(Cl)cccc2C(c2cnc3c(F)cccc3c2)=NC1(C)C [Ex-13]
- growth of the pathogen (relative growth in %, control 100%) (Septoria tritici): up to 18%
- growth of the pathogen (relative growth in %, control 100%) (Botrytis cinerea [1]): up to 14%
- growth of the pathogen (relative growth in %, control 100%) (Pyricularia oryzae): up to 20%
- growth of the pathogen (relative growth in %, control 100%) (Cercospora zeae maydis): up to 17%
- growth of the pathogen (fungal attack on the leaves visually assessed as % diseased leaf area) (Sclerotinia sclerotiorum [2]): at most 15%
- growth of the pathogen (fungal attack on the leaves visually assessed as % diseased leaf area) (Botrytis cinerea [3]): at most 13%
- growth of the pathogen (relative growth in %, control 100%) (Fusarium culmorum; 31 ppm): up to 20%
- growth of the pathogen (fungal attack on the leaves visually assessed as % diseased leaf area) (Sclerotinia sclerotiorum [4]): at most 12%
- growth of the pathogen (relative growth in %, control 100%) (Cercospora sojina): up to 12%
- growth of the pathogen (relative growth in %, control 100%) (Cercospora beticula): up to 20%
- growth of the pathogen (relative growth in %, control 100%) [5]: up to 17%

Structure (SMILES): CC1(C)N=C(c2cnc3c(F)cccc3c2)c2cccc(F)c2N1C#N [Ex-22]
- growth of the pathogen (relative growth in %, control 100%) (Botrytis cinerea [1]): up to 14%
- growth of the pathogen (relative growth in %, control 100%) (Pyricularia oryzae): up to 20%
- growth of the pathogen (relative growth in %, control 100%) (Cercospora zeae maydis): up to 17%
- growth of the pathogen (fungal attack on the leaves visually assessed as % diseased leaf area) (Sclerotinia sclerotiorum [2]): at most 15%
- growth of the pathogen (fungal attack on the leaves visually assessed as % diseased leaf area) (Botrytis cinerea [3]): at most 13%
- growth of the pathogen (relative growth in %, control 100%) (Fusarium culmorum; 31 ppm): up to 20%
- growth of the pathogen (fungal attack on the leaves visually assessed as % diseased leaf area) (Sclerotinia sclerotiorum [4]): at most 12%
- growth of the pathogen (relative growth in %, control 100%) [5]: up to 17%

Structure (SMILES): CC(C)N1c2c(F)cccc2C(c2cnc3c(F)cccc3c2)=NC1(C)C [Ex-14]
- growth of the pathogen (relative growth in %, control 100%) (Septoria tritici): up to 18%
- growth of the pathogen (relative growth in %, control 100%) (Botrytis cinerea [1]): up to 14%
- growth of the pathogen (relative growth in %, control 100%) (Pyricularia oryzae): up to 20%
- growth of the pathogen (relative growth in %, control 100%) (Cercospora zeae maydis): up to 17%
- growth of the pathogen (fungal attack on the leaves visually assessed as % diseased leaf area) (Sclerotinia sclerotiorum [2]): at most 15%
- growth of the pathogen (fungal attack on the leaves visually assessed as % diseased leaf area) (Botrytis cinerea [3]): at most 13%
- growth of the pathogen (relative growth in %, control 100%) (Fusarium culmorum; 31 ppm): up to 20%
- growth of the pathogen (relative growth in %, control 100%) (Cercospora sojina): up to 12%
- growth of the pathogen (relative growth in %, control 100%) (Cercospora beticula): up to 20%
- growth of the pathogen (relative growth in %, control 100%) [5]: up to 17%

Structure (SMILES): CCCN1c2c(F)cccc2C(c2cnc3c(F)cccc3c2)=NC1(C)C [Ex-11]
- growth of the pathogen (relative growth in %, control 100%) (Septoria tritici): up to 18%
- growth of the pathogen (relative growth in %, control 100%) (Botrytis cinerea [1]): up to 14%
- growth of the pathogen (relative growth in %, control 100%) (Pyricularia oryzae): up to 20%
- growth of the pathogen (relative growth in %, control 100%) (Cercospora zeae maydis): up to 17%
- growth of the pathogen (fungal attack on the leaves visually assessed as % diseased leaf area) (Sclerotinia sclerotiorum [2]): at most 15%
- growth of the pathogen (fungal attack on the leaves visually assessed as % diseased leaf area) (Botrytis cinerea [3]): at most 13%
- growth of the pathogen (relative growth in %, control 100%) (Fusarium culmorum; 8 ppm): up to 1%
- growth of the pathogen (relative growth in %, control 100%) (Fusarium culmorum; 31 ppm): up to 20%
- growth of the pathogen (fungal attack on the leaves visually assessed as % diseased leaf area) (Sclerotinia sclerotiorum [4]): at most 12%
- growth of the pathogen (relative growth in %, control 100%) (Cercospora sojina): up to 12%
- growth of the pathogen (relative growth in %, control 100%) [5]: up to 17%
